These are yes or no findings as the source states them, for the method shown. In cells and extracts the contact can be indirect. Some binding calls cover weakened binding; strength is not graded here.
Biological target: eukaryotic initiation factor 2 alpha (eIF2α) wild type fused with HaloTag (UniProt P05198)
Assay: FRET or BRET; NanoBRET in live HEK293 cells cotransfected with a NanoLuc fusion (donor) and a HaloTag fusion (acceptor); donor saturation assay and quantitative NanoBRET (mean corrected milliBRET); read at 460 nm and 618 nm

By UniProt entry, the sequences of proteins in these tests, tags left out.
UniProt P05198: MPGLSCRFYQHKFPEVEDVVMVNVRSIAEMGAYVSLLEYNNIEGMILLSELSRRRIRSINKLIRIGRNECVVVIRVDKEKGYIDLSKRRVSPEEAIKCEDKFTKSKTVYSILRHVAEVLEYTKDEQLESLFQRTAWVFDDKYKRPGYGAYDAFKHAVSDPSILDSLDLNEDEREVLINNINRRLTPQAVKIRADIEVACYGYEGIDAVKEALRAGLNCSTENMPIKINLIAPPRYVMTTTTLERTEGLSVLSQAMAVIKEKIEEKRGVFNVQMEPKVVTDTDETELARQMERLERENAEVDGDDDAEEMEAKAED
UniProt Q7KZI7: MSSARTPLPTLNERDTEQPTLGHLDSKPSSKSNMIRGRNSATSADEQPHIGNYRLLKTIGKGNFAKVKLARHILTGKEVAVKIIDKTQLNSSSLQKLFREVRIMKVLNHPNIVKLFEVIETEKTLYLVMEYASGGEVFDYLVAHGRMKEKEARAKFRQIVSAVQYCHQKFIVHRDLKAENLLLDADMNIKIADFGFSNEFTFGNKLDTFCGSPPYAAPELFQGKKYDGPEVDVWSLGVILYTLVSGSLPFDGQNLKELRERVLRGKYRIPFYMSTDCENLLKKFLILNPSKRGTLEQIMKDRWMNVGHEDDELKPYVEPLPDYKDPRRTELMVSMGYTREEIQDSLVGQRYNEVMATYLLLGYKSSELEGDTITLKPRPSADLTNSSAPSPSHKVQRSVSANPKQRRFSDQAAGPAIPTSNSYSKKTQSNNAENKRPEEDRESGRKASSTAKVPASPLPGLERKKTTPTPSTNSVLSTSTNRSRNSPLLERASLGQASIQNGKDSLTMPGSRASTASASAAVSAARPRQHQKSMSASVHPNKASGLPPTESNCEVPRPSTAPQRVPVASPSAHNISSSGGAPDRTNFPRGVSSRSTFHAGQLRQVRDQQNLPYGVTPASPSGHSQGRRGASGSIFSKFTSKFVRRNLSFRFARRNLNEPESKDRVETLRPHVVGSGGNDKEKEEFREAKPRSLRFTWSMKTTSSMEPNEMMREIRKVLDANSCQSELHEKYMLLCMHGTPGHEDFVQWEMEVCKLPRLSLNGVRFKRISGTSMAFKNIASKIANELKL

binding: binds
Substance: microtubule affinity-regulating kinase 2 (MARK2) fused with NanoLuc (from UniProt Q7KZI7 1-788) (enzyme)
